Results from US11273203B2, “Methods of mitigating toxic effects of vesicants and caustic gas” (dated 2022).

System: male Wistar rats exposed to nitrogen mustard (NM)
Test: MRI (T2-weighted) measurement of NM-induced pulmonary edema
Conditions: Day 3; single dose TPOm 0.3 mg/kg 6 hours after NM-exposure; two NM/TPOm groups; NM-treated group 1736 mm3; not statistically significant

**Q.** Which mean edema volume does the source give for “methoxypolyethyleneglycol20000-propionyl-L-Isoleucyl-L-Glutamyl-Glycyl-L-Prolyl-L-Threonyl-L-Leucyl-L-Arginyl-L-Glutaminyl-L-2-Naphthylalanyl-L-Leucyl-L-Alanyl-L-Alanyl-L-Arginyl-Sarcosyl-Ne-(methoxypolyethyleneglycol20000-propionyl-L-Isoleucyl-L-Glutamyl-Glycyl-L-Prolyl-L-Threonyl-L-Leucyl-L-Arginyl-L-Glutaminyl-L-2-Naphthylalanyl-L-Leucyl-L-Alanyl-L-Alanyl-L-Arginyl-Sarcosyl-)-Lysinamide” here?
**A.** 1592 mm3 and 1387 mm3

Certain results were filed several times, with different values. The list is limited to them. An entry can have further records. Results that share an entry differ, and nothing given here explains why; dose, time, organism, isomer or construct need not be as stated for each record.
